Measured values: the supplement of paper PMC3334620
In all, about 33,000 sequences were measured (“E-score (-0.5 to 0.5)”: median about -8e-05, highest 2% from about 0.23 on). This is one part of the list.

target: T1, Nrg2 (UniProt P38082); assay: PBM E-score (8-mer binding enrichment) (E-score (-0.5 to 0.5)); higher = stronger / more preferred TF binding; conditions: protein concentration: 100 nM; construct: GST-full length
T1 sequence: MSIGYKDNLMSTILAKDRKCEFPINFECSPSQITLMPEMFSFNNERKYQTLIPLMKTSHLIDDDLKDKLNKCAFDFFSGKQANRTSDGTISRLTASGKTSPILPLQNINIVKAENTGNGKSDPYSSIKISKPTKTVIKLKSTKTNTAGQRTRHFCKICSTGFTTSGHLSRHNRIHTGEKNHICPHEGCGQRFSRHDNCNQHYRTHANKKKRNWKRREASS
Method in brief: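 PURExpress in vitro transcription/translation supplied GST-tagged yeast transcription factors, either full-length or DNA-binding domain. Applied at about 100-200 nM to universal all-10-mer Agilent arrays double-stranded by primer extension, the bound protein was detected with fluorescent anti-GST. E-scores, modified Wilcoxon-Mann-Whitney statistics, were given by the Universal PBM Analysis Suite to ungapped eight-base words pooled with their reverse complements after masliner normalisation.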

Point of comparison: TAATCTCA, “PBM E-score” value 0.0067. Against it:
- TCGTATAA — higher, 0.146
- CCAAAGAG — lower, -0.0632
- GAGGTGAA — lower, 0.00453
- ACGAGTAC — higher, 0.0318
- CCCACATC — lower, -0.0924
- CAACCGTG — lower, -0.105
- CGGCGGGA — lower, -0.177
- AAGGAATA — higher, 0.191
- CACGCCCA — lower, -0.0984
- ATACGCCA — lower, -0.044
- AGAGGAGG — lower, -0.333
- AACCGCAA — higher, 0.185
- CCGTCTAG — lower, -0.0277
- ACACAGTC — higher, 0.105
- CCAAAGCC — lower, -0.0707
- GTCTCTAA — lower, 0.00343
- ACTACATA — higher, 0.0943
- CTAATCAC — higher, 0.194
- CTTTCTCC — lower, -0.142
- CTGATGCC — lower, -0.0784
- AAGGACTG — lower, -0.209
- GCCCTAAC — higher, 0.122
- GTTCCCGA — lower, -0.0852
- TAGCTATA — higher, 0.0144
- CTCATGGC — higher, 0.0578
- ACGTGCGA — lower, -0.164
- CTCACCAA — higher, 0.173
- ATGGAATC — higher, 0.267
- GCTGGCAC — lower, -0.0654
- CAGCACCC — lower, -0.292
- ATCAAGAG — higher, 0.16
- ATTTGTCC — higher, 0.139
- ATTGGACC — higher, 0.0507
- ATGAATGG — higher, 0.339
- AGGCTCAA — lower, -0.0585
- ACGCGTAA — lower, -0.0223
- CGCAATTC — higher, 0.156
- CAAAGCGC — higher, 0.0307
- CGGACCAG — higher, 0.101
- ACACGGCG — higher, 0.0413
- ACCCGGAT — lower, -0.0838
- ACCACAGG — lower, -0.0691
- ATCCCGCC — higher, 0.0743
- ATCCTTAG — lower, -0.109
- ATCTCACG — higher, 0.0639
- AGATAGAT — lower, -0.0966
- GGCTATAA — lower, -0.165
- GCAACAGA — higher, 0.0125
- AACCTCAT — lower, -0.0112
- GTATACGA — lower, -0.106
- AATGAACA — higher, 0.173
- CATCCGGG — lower, -0.0671
- TTAAACAA — lower, -0.0194
- CAAAAGGC — higher, 0.0593
- GGCACGCC — lower, -0.31
- CATTTTCC — higher, 0.0879
- CATTGATC — higher, 0.0648
- ATGTATAC — higher, 0.126
- GACGAGCC — higher, 0.0584
- CGGGCCTA — lower, -0.0975
- GAACTTTA — lower, -0.0689
- CGGCCACA — higher, 0.0914
- ACGACCCA — higher, 0.0623
- GCATGCTA — lower, -0.0999
- CGGAGCAA — higher, 0.0265
- CGGATCTA — lower, -0.11
- CTCTTACA — lower, -0.119
- ATGTAAAC — higher, 0.1
- ACTCCCGC — lower, -0.0823
- ACACGCCA — higher, 0.0125
- GTTCGCCA — lower, -0.0462
- AAAGGACT — lower, -0.155
- GCCCGCAA — higher, 0.0877
- CATCAAAA — higher, 0.0292
- ACGTTTCG — lower, -0.104
- ACAGATAT — higher, 0.115
- AAACTAAG — higher, 0.185
- ATCATCAT — lower, -0.00753
- GAATAGGA — higher, 0.0976
- ACTAAAAC — higher, 0.125
- TACGAAAA — lower, -0.0899
- AGCTGTCC — higher, 0.0544
- GGGTGTCA — higher, 0.0253
- TACGCCTA — lower, -0.227
- AGAGTTTG — higher, 0.0665
- AAACCTGC — higher, 0.101
- CGTCACCA — lower, -0.0898
- AATAATGC — higher, 0.083
- CGGCAACA — higher, 0.0747
- CCCCGACC — lower, -0.101
- TAGAGCGA — lower, -0.079
- CGGGACGA — higher, 0.0185
- ACTTAAGC — lower, -0.222
- AAAAAGAG — lower, -0.0377
- AAGTCCAG — higher, 0.0978
- GCGAATAA — higher, 0.18
- AGACCGAG — lower, -0.053
- GGAATGGA — lower, -0.0278
- CCAGGGCC — higher, 0.106
- ACGATAAG — higher, 0.0548
- AATTCTAC — higher, 0.231
- GCTTGCAA — higher, 0.206
- ACGGGCTA — lower, -0.131
- CTTCTGAA — lower, -0.0225
- CCGCGACG — lower, -0.247
- ATAGGTAG — lower, -0.0537
- AAGTTAAA — higher, 0.076
- ACATGGCG — lower, -0.126
- GGACAAAA — higher, 0.159
- CGGCATTC — higher, 0.0691
- GGGGTATA — higher, 0.0333
- AGCCCACA — lower, -0.0846
- ACATGGAC — lower, 0
- ATGCACCC — higher, 0.013
- CACTCGAC — lower, -0.0704
- AAAGGGCC — higher, 0.125
- CTGGGAAG — lower, -0.0935
- ATTGGCGC — lower, -0.0325
- CTGAGAAC — higher, 0.0907
- TCATTTCA — higher, 0.118
- CAAATGTC — lower, -0.0721
- CTATCGAG — lower, -0.0206
- GGTCACCA — lower, -0.355
- CCGTACTC — lower, -0.0831
- GCCGCCTA — lower, -0.0809
- ACCAACAT — higher, 0.0787
- CTGTGTAC — higher, 0.0416
- AGTTATCG — higher, 0.076
- CGTGGGGC — higher, 0.0844
- AAGCTAAT — higher, 0.11
- CCAGCGAA — lower, -0.0764
- CAGGTGAA — higher, 0.125
- CAGATCCA — higher, 0.0254
- CCAAAACC — higher, 0.0823
- AGCCAGCC — lower, -0.247
- GTCAACAA — lower, -0.0634
- AAATAGTA — higher, 0.173
- ACTGTCTG — lower, -0.0959
- CGGGGGTA — lower, -0.189
- AGTGTGCC — higher, 0.0855
- CCCGAAAA — higher, 0.129
- CACGCTTA — lower, -0.0853
- AGGCTAAT — higher, 0.0429
- AATGCTGT — lower, -0.165
- GCCTGCCA — lower, -0.147
- CATGTACC — lower, -0.265
- AAACCAAA — higher, 0.0963
- ACTGTAAA — higher, 0.141
- TGACCGAA — lower, -0.0761
- ATGGGTAG — lower, -0.13
- CATAAGAC — lower, -0.0288
- ACCCGGAG — lower, -0.063
- GAACTTGC — lower, -0.132
- CTTCGATA — lower, -0.0721
- GCCGACAC — lower, -0.0613
- GAGGATTA — lower, -0.0617
- GGCAGTAA — higher, 0.0379
- GCAGCACA — higher, 0.0607
- ATCGACTC — lower, -0.144
- AGTCATCA — lower, -0.0384
- AGCCCAAC — lower, -0.0546
- CGTCGCAG — higher, 0.0454
- ACGTAACC — lower, -0.0912
- GGACATTA — higher, 0.14
- GGATGGTA — higher, 0.11
- CCCGGTGA — lower, -0.253
- CAATGATG — lower, -0.0307
- ACTGACCG — lower, -0.0539
- CATCTTGA — higher, 0.0489
- CGTGACAA — higher, 0.0462
- CTTCCCGA — higher, 0.148
